# According to PubChem BioAssay AID445 (National Center for Advancing Translational Sciences (NCATS), 2006):
# The list shows a part of the results. The main result of the screen is listed elsewhere. These columns were measured beside it and carry no call. Most of these compounds were active or inconclusive in the main read-out, so they are no random draw. Potencies come from curve fits of mixed quality, noted in brackets.
# Assay: IkB Signaling
# Settings: ABC-DLBCL IkBa-CBG/CBR dual luciferase ratio (green luciferase fused to IkBa over red control in OCI-Ly3 lymphoma cells), 4 h
# Procedure, shortened: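 Luminescence ratio of IκBα-fused green versus native red beetle luciferase in OCI-Ly3 cells, 4 h post-doxycycline with compound; red signal alone, scaled from basal (0%) to zero light (-100%), flagged nonspecific or cytotoxic effects.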
# [1] = measured here: control luc red channel unless noted
# [2] = measured here: IkB-luc green channel
# [3] = measured here: control luc red channel
structure (smiles),measurement,setting,value
On1onc2c3cc(-c4ccccc4)nc3ccc21,AC50,[1],"20 µM [falling, partial curve]"
O=[N+]([O-])c1ccc(F)cc1F,AC50,[1],"39.8 µM [rising, single point] [measured here: IkB-luc green channel]"
CCOc1ccc(C(=O)Nc2ccc(-n3nncc3-c3ccc(OC)cc3)cc2)cc1,AC50,[1],"20 µM [falling, single point]"
COc1ccc(CCn2c(N)c(C(=O)NCc3ccco3)c3nc4ccccc4nc32)cc1OC,AC50,[1],"12.6 µM [falling, partial curve]"
COc1ccccc1NC(=O)C1=C(C)Nc2nc(-c3ccco3)nn2C1c1ccccc1F (stereo not drawn),AC50,[1],"12.6 µM [falling, partial curve]"
Cc1cc(F)ccc1S(=O)(=O)Nc1ccccc1C(=O)Nc1ccc2[nH]c(=O)[nH]c2c1,AC50,[1],"15.8 µM [falling, partial curve]"
CC(=O)c1ccc(NC(=O)CCc2c(C)nn(-c3ccc4nnc(C)n4n3)c2C)cc1,AC50,[1],"39.8 µM [falling, partial curve, poor fit]"
Nc1c(S(=O)(=O)c2cccs2)c2nc3ccccc3nc2n1Cc1ccc2c(c1)OCO2,AC50,[1],"7.94 µM [falling, full curve]"
O=C(CSc1nc(-c2ccccc2)nc2cc(=O)[nH]n12)Nc1ccccc1,AC50,[1],"39.8 µM [falling, single point]"
CCc1nc(-c2ccc(C)c(S(=O)(=O)N3CCN(c4ccc(C(C)=O)cc4)CC3)c2)no1,AC50,[1],"1.26 µM [rising, partial curve]"
Cc1ccccc1C(=O)N1c2ncnn2C2(CCCCC2)[C@@H]2CCCC[C@@H]21,AC50,[1],"25.1 µM [falling, partial curve, poor fit]"
CC(C)Nc1nc2c(-c3cccc(Br)c3)nnn2c2ccccc12,AC50,[1],"0.0126 µM [falling, full curve]"
CCc1c(C)sc2c1CCN(C(=O)Nc1cc(C)ccc1C)C2c1ccc(OC)cc1 (stereo not drawn),AC50,[1],"39.8 µM [falling, single point]"
Cc1nc(-c2cccc(S(=O)(=O)N3CCC(C(=O)NCc4ccccc4Cl)CC3)c2)no1,AC50,[1],"3.16 µM [falling, single point]"
Cn1nc(-c2ccccc2F)c2cc(C(=O)NCc3cccc(Cl)c3)sc21,AC50,[1],"10 µM [falling, partial curve]"
Cc1cc(C)cc(NC(=O)c2cc(S(=O)(=O)N3CCCC3)ccc2F)c1,AC50,[1],"20 µM [falling, partial curve]"
Cc1ccc(C)c(NC(=O)c2nnn(Cc3ccc(F)cc3Cl)c2N)c1,AC50,[1],"31.6 µM [falling, partial curve]"
O=C(NCCc1ccccc1)c1cnc2sc(N3CCCCC3)nn2c1=O,AC50,[1],"0.251 µM [rising, full curve]"
COc1cc(OC)c(NC(=O)N2CCc3cc(S(=O)(=O)N4CCC(C)CC4)ccc32)cc1Cl,AC50,[1],"31.6 µM [falling, single point]"
Cc1ccc2[nH]c(=O)c(C(c3nnnn3C(C)(C)C)N(Cc3ccco3)CC3CCCO3)cc2c1 (stereo not drawn),AC50,[1],"15.8 µM [rising, partial curve] [measured here: IkB-luc green channel]"
O=C(c1cc2c(s1)-c1ccccc1OC2)N1CCN(c2ccc(F)cc2)CC1,AC50,[1],"10 µM [falling, partial curve]"
COc1ccc(C(=O)CN2CCN(c3ccc(F)cc3)CC2)cc1OC,AC50,[1],"25.1 µM [falling, partial curve]"
Cc1ccccc1Nc1nc(N)nc(COC(=O)CCS(=O)(=O)c2ccccc2)n1,AC50,[1],"12.6 µM [falling, partial curve]"
COc1ccc(NC(=O)Cn2c(=O)n(Cc3ccco3)c(=O)c3oc4ccccc4c32)cc1Cl,AC50,[1],"6.31 µM [falling, partial curve]"
CC1CCc2nc(NC(=O)CN3CCN(Cc4ccc5c(c4)OCO5)CC3)sc2C1 (stereo not drawn),AC50,[1],"12.6 µM [falling, partial curve]"
Cc1ccccc1CNCc1c(C(=O)O)c(C)n(Cc2ccc(F)cc2Cl)c1C,AC50,[1],"10 µM [falling, partial curve]"
COc1ccc(-n2ncc3c2ncn2nc(Cc4ccccc4)nc32)cc1,AC50,[1],"15.8 µM [falling, partial curve]"
CC(=O)Nc1ccc(C(=O)Nc2ccc3c(c2)N(C2CCCC2)C(=O)c2ccccc2S3)cc1,AC50,[1],"3.16 µM [falling, partial curve]"
Clc1ccccc1CN1CCc2nc(N3CCN(c4ncccn4)CC3)ncc2C1,AC50,[1],"25.1 µM [falling, partial curve]"
O=C(Nc1ccc(F)cc1)c1cc2cc3ccc(Cl)cc3nc2o1,AC50,[1],"2.51 µM [rising, full curve]"
Cc1oc(-c2ccccc2Cl)nc1CS(=O)(=O)CC(=O)NC(C)c1ccccc1 (stereo not drawn),AC50,[1],"15.8 µM [falling, partial curve]"
CCOc1ccccc1CNC(=O)CSc1nnc(C)c2c(C)n(-c3ccccc3)nc12,AC50,[1],"7.94 µM [falling, partial curve]"
Cc1ccc(S(=O)(=O)c2c(N)n(CC3CCOC3)c3nc4ccccc4nc23)cc1 (stereo not drawn),AC50,[1],"20 µM [falling, partial curve]"
Cc1ccc(CN(C(=O)COc2ccc([N+](=O)[O-])cc2)c2ccccn2)o1,AC50,[1],"7.94 µM [falling, full curve, poor fit]"
Cc1ccc(Nc2ncc(C(=O)Nc3ccc(F)cc3F)c3ccccc23)cc1Cl,AC50,[1],"3.16 µM [falling, full curve, poor fit]"
COc1ccc(CNC(=O)c2nn(C)c3c2CS(=O)(=O)c2ccccc2-3)cc1,AC50,[1],"25.1 µM [falling, single point]"
O=C(COc1ccccc1)Nc1nnc(SCc2cc(=O)n3cc(Cl)ccc3n2)s1,AC50,[1],"3.98 µM [falling, partial curve]"
COc1ccc(CCNC(=O)CCS(=O)(=O)c2cc3c(cc2Cl)NC(=O)CO3)cc1OC,AC50,[1],"0.0794 µM [rising, full curve]"
CCc1nnc(SCC(=O)Nc2cccc(C(F)(F)F)c2)c2cc3oc(C)cc3n12,AC50,[1],"12.6 µM [falling, partial curve]"
CCOC(=O)Cc1c(C)nc2c(-c3ccc(Cl)cc3)c(C(F)(F)F)nn2c1C,AC50,[1],"10 µM [falling, partial curve]"
CCCc1nn2cc(-c3ccc(C)c(C)c3)nc2s1,AC50,[1],"15.8 µM [falling, partial curve]"
COc1ccc(/C=C/C(=O)Nc2ccc3nc4c(c(Nc5ccc(OC)c(OC)c5)c3c2)CCCC4)cc1,AC50,[1],"10 µM [falling, partial curve]"
COc1ccc(-c2noc(CSc3nnc(Cc4ccccc4)n3-c3cccc(C)c3)n2)cc1,AC50,[1],"25.1 µM [falling, partial curve]"
Cc1ccc(NC(=O)c2oc3ccccc3c2NC(=O)C23CC4CC(CC(C4)C2)C3)cc1,AC50,[1],"39.8 µM [falling, single point]"
Cc1ccc(C(=O)NCc2ccccc2)cc1NC(=O)c1nsc2ccccc12,AC50,[1],"7.94 µM [falling, partial curve]"
C=C(C)COc1ccc(-c2n[nH]c(C)c2-c2ccccc2)c(O)c1,AC50,[1],"31.6 µM [falling, single point]"
Cn1cc(C(=O)NCCc2ccccc2)c(=O)c2cc(S(=O)(=O)N3CCCCC3)ccc21,AC50,[1],"7.94 µM [falling, partial curve]"
CC(C)(C)OC(=O)N1CCC(c2c(C(=O)N3CCN(Cc4ccccc4)CC3)cnn2-c2ccc(Cl)cc2)CC1,AC50,[1],"39.8 µM [falling, single point]"
c1ccc2c(c1)CCN(c1ncnc3nc[nH]c13)C2,AC50,[2],"2.51 µM [rising, full curve]"
same,AC50,[3],"1.26 µM [rising, full curve]"
CCc1ccc(OCC(=O)Nc2cc(-c3nc4cc(C)ccc4o3)ccc2C)cc1,AC50,[1],"0.794 µM [falling, full curve]"
O=S(=O)(c1cccc2c(Cl)cccc12)N1CCCNCC1,AC50,[1],"39.8 µM [falling, partial curve, poor fit]"
COc1ccc(S(=O)(=O)N2CCCC(C(=O)Nc3cccc(C(C)=O)c3)C2)cc1 (stereo not drawn),AC50,[1],"15.8 µM [falling, partial curve]"
Cc1cc(Nc2ccccc2Br)n2nc(C)nc2n1,AC50,[1],"15.8 µM [rising, partial curve]"
O=C(NCCN1CCOCC1)c1cc(-c2cccs2)on1,AC50,[2],"25.1 µM [rising, partial curve]"
same,AC50,[3],"20 µM [rising, partial curve]"
CCC1CCCCN1C(=O)CCS(=O)(=O)c1cc2c(cc1C)NC(=O)CO2 (stereo not drawn),AC50,[1],"12.6 µM [falling, partial curve]"
Cc1ccc(Nc2c(-c3ccc(C)o3)nc3cccc(C)n23)cc1,AC50,[1],"25.1 µM [falling, partial curve]"
CCOc1ccccc1N1CCN(S(=O)(=O)c2ccc(Cl)s2)CC1,AC50,[1],"12.6 µM [falling, partial curve]"
Cc1cc(C)cc(-n2c(SCC(=O)N3CCCCCC3)nc3c([nH]c4ccccc43)c2=O)c1,AC50,[1],"1.58 µM [rising, full curve, poor fit]"
CCS(=O)(=O)c1ncc(Cl)c(C(=O)NCc2ccccc2)n1,AC50,[1],"6.31 µM [falling, full curve]"
COc1ccc(-c2cc(=O)oc3c4c(ccc23)OCN(Cc2ccccc2)C4)cc1,AC50,[1],"39.8 µM [falling, partial curve]"
COCC(C)n1c(C)cc(C(=O)CSc2nc3ccccc3c(=O)[nH]2)c1C (stereo not drawn),AC50,[1],"15.8 µM [falling, partial curve]"
